Laboratory results published in paper PMC11598875.
No constants are given. Whether binding was seen depends on the method and setting. Some results given as binding are weak or reduced against the parent protein; the word gives no strength.

Sequences of proteins named here, by UniProt entry; tags and fusion partners are left off.
UniProt P03713: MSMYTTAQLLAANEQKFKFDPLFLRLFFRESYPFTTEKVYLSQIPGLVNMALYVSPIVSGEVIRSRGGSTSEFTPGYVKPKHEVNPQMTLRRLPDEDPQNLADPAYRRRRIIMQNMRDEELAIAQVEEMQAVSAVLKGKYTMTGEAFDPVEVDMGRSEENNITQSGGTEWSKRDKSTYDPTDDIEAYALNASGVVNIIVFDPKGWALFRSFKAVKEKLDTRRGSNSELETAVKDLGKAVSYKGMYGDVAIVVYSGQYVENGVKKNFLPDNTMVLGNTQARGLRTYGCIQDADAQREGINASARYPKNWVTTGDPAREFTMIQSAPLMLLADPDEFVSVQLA

T1: bacteriophage lambda decoration protein gpD (bacteriophage lambda), P03712
T1 chain: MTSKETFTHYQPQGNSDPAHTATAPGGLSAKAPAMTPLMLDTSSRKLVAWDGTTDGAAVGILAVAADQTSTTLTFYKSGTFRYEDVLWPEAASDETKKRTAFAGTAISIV

B1: bacteriophage lambda decoration protein gpD, P03712 1-110 (protein)
chain: T1 chain

Tests used:
[1] = target: phage lambda phage-like particles (expanded shells of the major capsid protein gpE) (bacteriophage lambda) (UniProt P03713); test: native gel or EMSA; both purified
[2] = target: T1, bacteriophage lambda decoration protein …; test: AUC; sedimentation velocity, 20 °C, 50,000 rpm; 10 mM sodium phosphate pH 6.6, 1.8 mM KH2PO4, 137 mM NaCl, 2.7 mM KCl; three concentrations, 11–63 μM; both purified; details: remark: other sources report otherwise

| Molecule | binding [1] | binding [2] |
| --- | --- | --- |
| bacteriophage lambda decoration protein gpD (from UniProt P03712 1-110) | binds |  |
| B1 |  | no binding (tested: 11–63 μM) |
